In the supplement of paper PMC10849652:
Some of the results follow.

Chains of the proteins cited; added tags and fusions are not shown. Lines headed by an entry give the natural chain unless they say otherwise; changes in a name come on top.
UniProt Q8NA72: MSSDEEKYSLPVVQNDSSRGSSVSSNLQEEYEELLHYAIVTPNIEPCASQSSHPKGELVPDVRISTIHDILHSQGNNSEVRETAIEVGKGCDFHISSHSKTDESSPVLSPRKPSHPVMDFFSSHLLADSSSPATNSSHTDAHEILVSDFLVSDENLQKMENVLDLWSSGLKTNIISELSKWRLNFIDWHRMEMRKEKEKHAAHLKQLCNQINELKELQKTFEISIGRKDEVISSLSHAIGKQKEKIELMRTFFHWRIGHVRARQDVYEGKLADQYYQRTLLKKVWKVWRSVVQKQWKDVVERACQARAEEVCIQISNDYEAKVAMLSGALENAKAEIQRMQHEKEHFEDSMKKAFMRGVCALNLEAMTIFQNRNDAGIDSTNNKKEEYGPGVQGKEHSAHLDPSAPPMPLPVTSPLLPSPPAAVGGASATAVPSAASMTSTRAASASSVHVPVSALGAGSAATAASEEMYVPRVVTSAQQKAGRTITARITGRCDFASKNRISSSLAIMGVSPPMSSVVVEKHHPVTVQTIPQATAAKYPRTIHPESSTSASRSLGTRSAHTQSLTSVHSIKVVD
UniProt P00491: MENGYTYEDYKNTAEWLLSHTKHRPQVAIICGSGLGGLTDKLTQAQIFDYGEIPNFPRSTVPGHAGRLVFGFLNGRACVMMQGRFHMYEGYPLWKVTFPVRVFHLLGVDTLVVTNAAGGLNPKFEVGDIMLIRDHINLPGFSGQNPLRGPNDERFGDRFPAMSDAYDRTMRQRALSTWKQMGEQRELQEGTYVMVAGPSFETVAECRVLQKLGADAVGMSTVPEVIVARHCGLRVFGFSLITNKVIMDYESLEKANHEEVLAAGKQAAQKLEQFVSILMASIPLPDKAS
UniProt Q96AD5: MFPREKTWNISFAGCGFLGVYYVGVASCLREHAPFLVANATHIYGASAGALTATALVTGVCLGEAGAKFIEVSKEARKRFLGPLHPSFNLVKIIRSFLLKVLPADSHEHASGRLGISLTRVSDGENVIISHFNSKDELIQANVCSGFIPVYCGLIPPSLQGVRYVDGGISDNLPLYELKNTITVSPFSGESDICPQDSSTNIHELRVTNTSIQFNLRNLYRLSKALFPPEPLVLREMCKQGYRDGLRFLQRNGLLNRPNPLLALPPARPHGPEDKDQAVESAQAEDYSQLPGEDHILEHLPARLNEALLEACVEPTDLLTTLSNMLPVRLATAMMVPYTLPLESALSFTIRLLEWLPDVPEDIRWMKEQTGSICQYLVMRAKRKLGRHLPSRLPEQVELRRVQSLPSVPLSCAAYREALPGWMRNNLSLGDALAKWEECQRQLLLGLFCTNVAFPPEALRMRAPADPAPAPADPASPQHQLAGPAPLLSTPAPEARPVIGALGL
UniProt Q8N490: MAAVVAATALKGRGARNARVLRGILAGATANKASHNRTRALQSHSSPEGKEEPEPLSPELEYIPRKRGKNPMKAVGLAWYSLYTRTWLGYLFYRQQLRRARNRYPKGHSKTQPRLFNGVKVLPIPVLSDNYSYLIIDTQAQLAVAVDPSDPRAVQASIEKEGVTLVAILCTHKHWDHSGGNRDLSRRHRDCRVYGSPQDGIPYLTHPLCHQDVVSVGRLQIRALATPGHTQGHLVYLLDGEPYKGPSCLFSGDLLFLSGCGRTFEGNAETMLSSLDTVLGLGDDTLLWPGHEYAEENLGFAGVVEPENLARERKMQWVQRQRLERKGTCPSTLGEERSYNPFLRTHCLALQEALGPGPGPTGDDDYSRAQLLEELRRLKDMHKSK
UniProt Q9BT43: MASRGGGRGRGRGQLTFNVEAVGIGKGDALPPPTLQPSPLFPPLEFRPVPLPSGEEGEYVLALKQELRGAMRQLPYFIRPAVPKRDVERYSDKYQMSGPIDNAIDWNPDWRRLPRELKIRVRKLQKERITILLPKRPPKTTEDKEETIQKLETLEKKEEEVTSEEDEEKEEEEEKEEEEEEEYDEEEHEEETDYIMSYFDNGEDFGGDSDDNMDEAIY
UniProt O75334: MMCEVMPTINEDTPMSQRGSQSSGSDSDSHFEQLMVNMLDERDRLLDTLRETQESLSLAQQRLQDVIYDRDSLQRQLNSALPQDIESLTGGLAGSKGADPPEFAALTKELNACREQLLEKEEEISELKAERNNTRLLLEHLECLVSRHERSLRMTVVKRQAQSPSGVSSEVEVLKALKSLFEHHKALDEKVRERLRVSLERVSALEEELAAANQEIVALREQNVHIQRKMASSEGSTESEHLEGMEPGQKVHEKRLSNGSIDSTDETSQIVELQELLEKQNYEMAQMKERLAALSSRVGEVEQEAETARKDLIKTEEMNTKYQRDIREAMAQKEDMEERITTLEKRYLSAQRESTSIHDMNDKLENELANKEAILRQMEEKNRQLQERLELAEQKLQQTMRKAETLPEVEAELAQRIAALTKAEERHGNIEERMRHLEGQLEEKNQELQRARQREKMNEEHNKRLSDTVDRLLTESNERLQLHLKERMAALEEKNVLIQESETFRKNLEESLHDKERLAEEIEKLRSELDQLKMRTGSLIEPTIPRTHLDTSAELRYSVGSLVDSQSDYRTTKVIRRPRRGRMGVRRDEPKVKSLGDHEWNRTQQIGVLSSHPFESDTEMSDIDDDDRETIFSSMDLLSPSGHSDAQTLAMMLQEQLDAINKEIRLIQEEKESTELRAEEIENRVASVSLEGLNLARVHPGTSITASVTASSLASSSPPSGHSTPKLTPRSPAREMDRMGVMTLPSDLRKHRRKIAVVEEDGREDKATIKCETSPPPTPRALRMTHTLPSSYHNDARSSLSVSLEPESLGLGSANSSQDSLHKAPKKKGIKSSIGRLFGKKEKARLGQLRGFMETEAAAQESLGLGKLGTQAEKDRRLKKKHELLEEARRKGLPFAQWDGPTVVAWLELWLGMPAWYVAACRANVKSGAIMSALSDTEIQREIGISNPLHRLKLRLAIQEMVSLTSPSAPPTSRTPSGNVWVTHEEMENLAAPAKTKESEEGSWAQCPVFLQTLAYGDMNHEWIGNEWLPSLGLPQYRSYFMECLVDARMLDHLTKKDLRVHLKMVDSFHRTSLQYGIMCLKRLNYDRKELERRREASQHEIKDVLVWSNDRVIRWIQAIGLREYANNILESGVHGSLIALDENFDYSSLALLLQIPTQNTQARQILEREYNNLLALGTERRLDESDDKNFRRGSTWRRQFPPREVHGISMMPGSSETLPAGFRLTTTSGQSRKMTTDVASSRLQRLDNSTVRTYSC
UniProt Q8IWE5: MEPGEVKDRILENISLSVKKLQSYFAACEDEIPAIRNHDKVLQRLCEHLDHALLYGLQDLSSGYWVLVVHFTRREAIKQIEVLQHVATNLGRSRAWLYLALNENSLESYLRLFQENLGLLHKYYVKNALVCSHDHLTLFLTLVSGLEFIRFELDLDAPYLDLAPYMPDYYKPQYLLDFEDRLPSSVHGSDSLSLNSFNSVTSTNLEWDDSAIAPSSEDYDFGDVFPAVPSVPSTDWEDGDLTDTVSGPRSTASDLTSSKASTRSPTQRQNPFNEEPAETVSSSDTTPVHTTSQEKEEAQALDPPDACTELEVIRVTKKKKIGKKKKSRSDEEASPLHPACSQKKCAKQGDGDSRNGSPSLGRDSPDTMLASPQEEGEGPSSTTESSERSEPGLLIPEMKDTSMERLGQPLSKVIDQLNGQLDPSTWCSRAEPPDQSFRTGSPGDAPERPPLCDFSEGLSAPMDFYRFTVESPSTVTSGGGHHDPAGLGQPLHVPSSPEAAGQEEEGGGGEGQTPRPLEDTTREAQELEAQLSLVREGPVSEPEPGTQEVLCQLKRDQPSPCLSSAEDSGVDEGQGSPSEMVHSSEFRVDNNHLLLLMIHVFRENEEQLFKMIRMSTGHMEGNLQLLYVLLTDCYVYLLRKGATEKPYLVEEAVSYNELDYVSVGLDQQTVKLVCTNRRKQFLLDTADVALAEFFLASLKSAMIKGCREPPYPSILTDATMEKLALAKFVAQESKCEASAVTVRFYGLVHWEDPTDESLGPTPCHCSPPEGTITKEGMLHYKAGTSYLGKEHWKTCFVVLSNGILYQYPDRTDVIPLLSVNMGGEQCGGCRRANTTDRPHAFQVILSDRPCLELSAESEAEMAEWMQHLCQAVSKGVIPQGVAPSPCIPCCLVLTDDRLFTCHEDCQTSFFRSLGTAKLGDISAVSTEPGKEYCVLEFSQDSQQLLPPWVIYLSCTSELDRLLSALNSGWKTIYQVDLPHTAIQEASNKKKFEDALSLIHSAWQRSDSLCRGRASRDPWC
UniProt P0DPB6, whole entry, looked up: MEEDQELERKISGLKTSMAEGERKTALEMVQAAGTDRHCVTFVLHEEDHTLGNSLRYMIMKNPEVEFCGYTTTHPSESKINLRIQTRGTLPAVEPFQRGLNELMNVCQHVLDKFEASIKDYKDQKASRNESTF
UniProt P13797: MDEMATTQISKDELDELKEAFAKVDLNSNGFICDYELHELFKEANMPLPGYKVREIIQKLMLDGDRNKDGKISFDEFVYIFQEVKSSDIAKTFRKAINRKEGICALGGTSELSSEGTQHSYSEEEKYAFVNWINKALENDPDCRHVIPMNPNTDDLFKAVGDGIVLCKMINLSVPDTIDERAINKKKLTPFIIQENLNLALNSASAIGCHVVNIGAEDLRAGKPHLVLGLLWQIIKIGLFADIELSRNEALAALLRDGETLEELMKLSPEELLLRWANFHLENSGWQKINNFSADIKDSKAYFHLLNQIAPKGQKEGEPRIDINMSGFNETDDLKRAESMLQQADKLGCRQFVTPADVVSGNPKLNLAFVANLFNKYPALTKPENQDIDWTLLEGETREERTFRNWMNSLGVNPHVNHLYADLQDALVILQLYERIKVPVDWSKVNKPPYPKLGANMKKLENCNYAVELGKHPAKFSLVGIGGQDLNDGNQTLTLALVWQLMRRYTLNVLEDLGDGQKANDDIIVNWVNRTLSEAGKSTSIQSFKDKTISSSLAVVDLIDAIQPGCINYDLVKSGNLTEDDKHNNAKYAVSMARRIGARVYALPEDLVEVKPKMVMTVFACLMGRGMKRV
UniProt Q99541: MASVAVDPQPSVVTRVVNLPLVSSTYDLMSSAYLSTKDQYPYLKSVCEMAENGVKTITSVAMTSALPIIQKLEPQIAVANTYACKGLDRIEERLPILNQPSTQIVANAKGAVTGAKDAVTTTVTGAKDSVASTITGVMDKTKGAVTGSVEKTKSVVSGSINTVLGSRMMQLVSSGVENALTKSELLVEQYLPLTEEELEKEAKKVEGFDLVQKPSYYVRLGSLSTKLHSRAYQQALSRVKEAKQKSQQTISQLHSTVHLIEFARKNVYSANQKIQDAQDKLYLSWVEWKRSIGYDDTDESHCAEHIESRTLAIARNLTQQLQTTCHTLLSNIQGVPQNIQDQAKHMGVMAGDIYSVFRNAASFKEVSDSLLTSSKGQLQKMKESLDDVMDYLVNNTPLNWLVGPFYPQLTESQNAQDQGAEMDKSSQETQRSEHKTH
UniProt Q9NW08: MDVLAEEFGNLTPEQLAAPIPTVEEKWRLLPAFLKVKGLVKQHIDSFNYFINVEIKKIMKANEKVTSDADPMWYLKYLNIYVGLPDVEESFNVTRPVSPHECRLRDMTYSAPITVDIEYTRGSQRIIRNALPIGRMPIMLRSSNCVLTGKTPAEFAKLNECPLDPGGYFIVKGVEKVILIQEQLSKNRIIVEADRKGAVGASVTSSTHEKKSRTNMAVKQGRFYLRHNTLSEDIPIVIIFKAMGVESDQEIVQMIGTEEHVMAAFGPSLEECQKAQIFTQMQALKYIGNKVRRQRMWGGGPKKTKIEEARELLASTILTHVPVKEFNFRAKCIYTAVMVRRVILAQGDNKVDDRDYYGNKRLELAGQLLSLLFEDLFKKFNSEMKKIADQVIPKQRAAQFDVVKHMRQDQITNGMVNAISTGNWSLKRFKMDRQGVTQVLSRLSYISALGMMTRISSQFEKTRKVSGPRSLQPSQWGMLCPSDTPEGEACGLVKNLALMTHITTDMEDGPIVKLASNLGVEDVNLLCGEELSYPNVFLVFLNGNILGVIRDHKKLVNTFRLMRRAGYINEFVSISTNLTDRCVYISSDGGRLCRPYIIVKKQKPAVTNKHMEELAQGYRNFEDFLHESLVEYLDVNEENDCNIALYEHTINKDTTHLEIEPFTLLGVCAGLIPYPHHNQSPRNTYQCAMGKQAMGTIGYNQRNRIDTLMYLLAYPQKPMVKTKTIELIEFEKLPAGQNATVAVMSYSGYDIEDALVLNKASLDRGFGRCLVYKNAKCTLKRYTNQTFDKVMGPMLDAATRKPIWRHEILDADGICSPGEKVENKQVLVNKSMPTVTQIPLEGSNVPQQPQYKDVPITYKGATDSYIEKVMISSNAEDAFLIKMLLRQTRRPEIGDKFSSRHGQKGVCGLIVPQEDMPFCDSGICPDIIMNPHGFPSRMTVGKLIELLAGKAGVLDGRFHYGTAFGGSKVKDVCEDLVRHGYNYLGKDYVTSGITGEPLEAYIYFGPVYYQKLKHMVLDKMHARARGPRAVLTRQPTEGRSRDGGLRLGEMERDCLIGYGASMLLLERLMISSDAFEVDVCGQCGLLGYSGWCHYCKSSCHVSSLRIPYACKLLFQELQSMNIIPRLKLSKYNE

Experiments:
Experiment in all cases: log2 fold change, soluble protein after heating vs DMSO (PISA); higher = thermal stabilisation; K562 lysate, 10 uM; active = over 0.2 and 3.5 SD of the protein, either way, in both replicates (recomputed)
[1] = compound: C1=CC=C(C=C1)[C@H](COC2=CC3=C(C=C2)NC(=O)N3)NC(=O)C4=CC=CN(C4=O)CC5=CC(=C(C=C5)F)F
Outline: (§1)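 The values are log-two fold changes in thermal stability compared with solvent controls and come from duplicates. They were obtained by TMTpro 16plex LC-MS/MS, with channel sums equalised, on the supernatant after 21,000xg for 90 min. That supernatant came from crude K562 extract at 1 mg/mL protein treated with 10 μM compound for 30 min, heated for 3 min across 48°C-58°C, pooled and brought to 0.5% NP-40 at 4°C.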

[2] = compound: CC1=C(SC2=C1C(=N[C@H](C3=NN=C(N32)C)CC(=O)N)C4=CC=C(C=C4)Cl)C
Outline: as §1

[3] = compound: CC1=C2C(=CC=C1)N=C(N(C2=O)C3=CC=CC=C3C)CN4C=NC5=C(N=CN=C54)N
Outline: as §1

[4] = compound: Cc1sc2c(c1C)C(c1ccc(Cl)cc1)=N[C@@H](CC(=O)OC(C)(C)C)c1nnc(C)n1-2
Outline: as §1

[5] = compound: c1ccc([C@@H]2C[C@H]2NC2CCNCC2)cc1
Outline: as §1

Measured: log2 fold change

POP5 (UniProt Q969H6)
inactive: [1] -0.063 | [2] -0.205 | [3] 0.026 | [4] -0.036 | [5] 0.177

POLR1A (UniProt O95602)
inactive: [1] 0.061 | [2] -0.011 | [3] 0.014 | [4] -0.082 | [5] 0.018

POLR2K (UniProt P53803)
inactive: [1] -0.011 | [2] 0.015 | [3] -0.035 | [4] 0.038 | [5] 0.046

POLR3E (UniProt Q9NVU0)
inactive: [1] -0.031 | [2] -0.003 | [3] -0.001 | [4] -0.002 | [5] -0.012

PPIE (UniProt Q9UNP9)
inactive: [1] 0.033 | [2] -0.023 | [3] 0.026 | [4] -0.04 | [5] -0.144

POLR2M (UniProt P0CAP2)
inactive: [1] 0.026 | [2] -0.005 | [3] 0.025 | [4] 0.024 | [5] 0.005

POC5 (UniProt Q8NA72)
inactive: [1] 0.016 | [2] -0.052 | [3] 0.161 | [4] 0.17 | [5] -0.097

POGLUT3 (UniProt Q7Z4H8)
inactive: [1] 0.008 | [2] -0.028 | [3] -0.045 | [4] 0.021 | [5] -0.012

PLG (UniProt P00747)
inactive: [1] -0.036 | [2] 0.024 | [3] -0.065 | [4] -0.181 | [5] -0.018

PNISR (UniProt Q8TF01)
inactive: [1] 0.015 | [2] 0.02 | [3] -0.066 | [4] 0.007 | [5] -0.037

POLR2L (UniProt P62875)
inactive: [1] -0.087 | [2] -0.225 | [3] 0.082 | [4] 0.057 | [5] 0.236

POLR3D (UniProt P05423)
inactive: [1] -0.005 | [2] 0.023 | [3] -0.015 | [4] -0.067 | [5] -0.033

PNP (UniProt P00491)
inactive: [1] 0.039 | [2] -0.031 | [3] 0.01 | [4] 0.007 | [5] 0.009

PLXNA1 (UniProt Q9UIW2)
inactive: [1] 0.013 | [2] 0.015 | [3] 0.023 | [4] 0.001 | [5] -0.011

PNPLA2 (UniProt Q96AD5)
inactive: [1] -0.02 | [2] -0.054 | [3] -0.033 | [4] 0.016 | [5] -0.064

POLB (UniProt P06746)
inactive: [1] -0.02 | [2] -0.005 | [3] 0.028 | [4] 0.041 | [5] 0.021

PNPT1 (UniProt Q8TCS8)
inactive: [1] 0.027 | [2] 0.043 | [3] 0.017 | [4] 0 | [5] 0.013

POLR3G (UniProt O15318)
inactive: [1] 0.025 | [2] 0.011 | [3] -0.018 | [4] -0.076 | [5] -0.068

PODXL2 (UniProt Q9NZ53)
inactive: [1] 0.037 | [2] 0.023 | [3] 0.057 | [4] -0.028 | [5] -0.065

POP4 (UniProt O95707)
inactive: [1] 0.057 | [2] 0.114 | [3] 0.019 | [4] -0.029 | [5] 0.008

PNKD (UniProt Q8N490)
inactive: [1] -0.032 | [2] -0.032 | [3] -0.137 | [4] 0.032 | [5] -0.009

PPIC (UniProt P45877)
inactive: [1] 0.209 | [2] -0.242 | [3] 0.12 | [4] 0.005 | [5] 0.055

POLE3 (UniProt Q9NRF9)
inactive: [1] 0.006 | [2] -0.017 | [3] -0.005 | [4] -0.006 | [5] -0.053

POM121 (UniProt Q96HA1)
inactive: [1] 0.011 | [2] -0.026 | [3] -0.031 | [4] -0.201 | [5] -0.014

POTEF (UniProt A5A3E0)
inactive: [1] -0.025 | [2] 0.074 | [3] 0.026 | [4] 0.015 | [5] -0.002

POLR1B isoform 3 (UniProt Q9H9Y6)
inactive: [1] -0.07 | [2] 0.07 | [3] 0.069 | [4] 0.001 | [5] -0.038

PPA1 (UniProt Q15181)
inactive: [1] 0.007 | [2] 0.017 | [3] 0.002 | [4] -0.02 | [5] 0.036

POLG2 (UniProt Q9UHN1)
inactive: [1] 0.051 | [2] -0.056 | [3] 0.025 | [4] 0.019 | [5] -0.041

POLD2 (UniProt P49005)
inactive: [1] 0.021 | [2] 0.02 | [3] -0.04 | [4] 0.021 | [5] 0.003

PMS1 (UniProt P54277)
inactive: [1] -0.011 | [2] -0.056 | [3] 0 | [4] -0.06 | [5] -0.006

PMM1 (UniProt Q92871)
inactive: [1] 0 | [2] 0.203 | [3] 0.099 | [4] -0.027 | [5] 0.023

POLR3GL (UniProt Q9BT43)
inactive: [1] -0.049 | [2] 0.076 | [3] 0.052 | [4] -0.007 | [5] 0.078

PLXNB2 (UniProt O15031)
inactive: [1] -0.034 | [2] 0.037 | [3] 0.014 | [4] 0.004 | [5] -0.024

POLR2C (UniProt P19387)
inactive: [1] -0.041 | [2] -0.011 | [3] 0.036 | [4] 0.049 | [5] -0.007

PPFIA2 (UniProt O75334)
inactive: [1] 0.022 | [2] 0.041 | [3] 0.003 | [4] -0.016 | [5] -0.132

PMPCA (UniProt Q10713)
inactive: [1] 0.019 | [2] 0.031 | [3] 0.028 | [4] -0.013 | [5] -0.012

PLEKHM2 (UniProt Q8IWE5)
inactive: [1] -0.001 | [2] 0.031 | [3] 0.005 | [4] -0.039 | [5] 0.003

POLR1D (UniProt P0DPB6)
inactive: [1] 0.003 | [2] -0.016 | [3] -0.025 | [4] -0.048 | [5] -0.008

PLS3 (UniProt P13797)
inactive: [1] 0.011 | [2] 0.006 | [3] 0.011 | [4] -0.042 | [5] -0.065

PLIN2 (UniProt Q99541)
inactive: [1] -0.138 | [2] 0.015 | [3] 0.021 | [4] -0.018 | [5] 0.014

POLE2 (UniProt P56282)
inactive: [1] -0.023 | [2] 0.059 | [3] 0.115 | [4] -0.055 | [5] 0.002

PPID (UniProt Q08752)
inactive: [1] -0.001 | [2] 0.008 | [3] -0.013 | [4] 0.029 | [5] 0.095

POFUT2 (UniProt Q9Y2G5)
inactive: [1] 0.043 | [2] -0.005 | [3] -0.073 | [4] -0.051 | [5] -0.002

POLR3B (UniProt Q9NW08)
inactive: [1] -0.025 | [2] 0.014 | [3] 0.014 | [4] 0.016 | [5] 0.002

POLDIP2 (UniProt Q9Y2S7)
inactive: [1] -0.02 | [2] 0.035 | [3] 0.001 | [4] 0.048 | [5] 0.017

5 neighbouring records already listed, quoted:
POM121 (UniProt Q96HA1)
inactive: [1] 0.011 | [2] -0.026 | [3] -0.031 | [4] -0.201 | [5] -0.014

POTEF (UniProt A5A3E0)
inactive: [1] -0.025 | [2] 0.074 | [3] 0.026 | [4] 0.015 | [5] -0.002

POLR1B isoform 3 (UniProt Q9H9Y6)
inactive: [1] -0.07 | [2] 0.07 | [3] 0.069 | [4] 0.001 | [5] -0.038

PPA1 (UniProt Q15181)
inactive: [1] 0.007 | [2] 0.017 | [3] 0.002 | [4] -0.02 | [5] 0.036

POLG2 (UniProt Q9UHN1)
inactive: [1] 0.051 | [2] -0.056 | [3] 0.025 | [4] 0.019 | [5] -0.041

(continued)

POTEI (UniProt P0CG38)
inactive: [1] -0.018 | [2] 0.028 | [3] 0.026 | [4] 0.013 | [5] 0.014

POR (UniProt P16435)
inactive: [1] -0.002 | [2] 0.031 | [3] 0.008 | [4] 0.016 | [5] -0.02

POLR2H (UniProt P52434)
inactive: [1] -0.017 | [2] -0.013 | [3] 0.091 | [4] 0.031 | [5] -0.008

PPFIA1 (UniProt Q13136)
inactive: [1] -0.002 | [2] 0.001 | [3] 0.009 | [4] -0.037 | [5] -0.011

POGK (UniProt Q9P215)
inactive: [1] -0.142 | [2] 0.13 | [3] -0.008 | [4] 0.016 | [5] -0.068

PLS1 (UniProt Q14651)
inactive: [1] 0.047 | [2] -0.008 | [3] -0.001 | [4] -0.018 | [5] -0.016

POLR3F (UniProt Q9H1D9)
inactive: [1] 0.019 | [2] -0.016 | [3] -0.023 | [4] -0.011 | [5] 0.002

POLR2I (UniProt P36954)
inactive: [1] 0.055 | [2] -0.113 | [3] 0.018 | [4] 0.054 | [5] -0.012
